For experiment [1], the target named is T1, Flag-p107 in U-2 OS cells (UniProt P28749).
T1 sequence: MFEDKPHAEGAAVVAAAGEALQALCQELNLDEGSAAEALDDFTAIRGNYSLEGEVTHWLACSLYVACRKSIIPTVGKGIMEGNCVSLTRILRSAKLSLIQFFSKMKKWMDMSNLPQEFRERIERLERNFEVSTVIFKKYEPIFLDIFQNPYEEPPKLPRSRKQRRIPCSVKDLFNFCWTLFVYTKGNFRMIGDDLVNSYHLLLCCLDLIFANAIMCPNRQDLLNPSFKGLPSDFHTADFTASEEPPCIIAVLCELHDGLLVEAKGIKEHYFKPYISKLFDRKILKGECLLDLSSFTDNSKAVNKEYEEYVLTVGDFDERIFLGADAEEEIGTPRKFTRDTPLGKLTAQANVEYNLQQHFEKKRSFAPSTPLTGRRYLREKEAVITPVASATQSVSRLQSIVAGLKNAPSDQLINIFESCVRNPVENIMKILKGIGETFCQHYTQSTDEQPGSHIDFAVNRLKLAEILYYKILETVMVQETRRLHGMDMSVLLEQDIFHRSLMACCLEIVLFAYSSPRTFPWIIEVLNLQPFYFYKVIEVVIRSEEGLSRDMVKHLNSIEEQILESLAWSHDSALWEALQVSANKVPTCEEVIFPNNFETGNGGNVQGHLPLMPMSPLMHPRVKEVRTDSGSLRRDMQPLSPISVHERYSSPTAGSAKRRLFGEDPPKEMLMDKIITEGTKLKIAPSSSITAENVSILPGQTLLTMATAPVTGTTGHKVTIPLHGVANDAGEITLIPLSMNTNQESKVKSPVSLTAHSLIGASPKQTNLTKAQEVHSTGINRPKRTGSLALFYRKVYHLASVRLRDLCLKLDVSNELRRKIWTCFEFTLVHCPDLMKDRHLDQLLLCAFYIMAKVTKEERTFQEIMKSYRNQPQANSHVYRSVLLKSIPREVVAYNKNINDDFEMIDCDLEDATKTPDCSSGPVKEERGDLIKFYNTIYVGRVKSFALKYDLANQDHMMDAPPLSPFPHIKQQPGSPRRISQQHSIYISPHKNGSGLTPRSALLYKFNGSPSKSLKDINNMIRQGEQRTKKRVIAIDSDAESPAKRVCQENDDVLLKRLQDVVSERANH
Kind of experiment: co-IP; U-2 OS cells co-transfected with Flag-p107, HA-E2F4, with or without Myc-B55α and/or cyclin E; IP with anti-Flag agarose; western blot.

Chains of the proteins cited; added tags and fusions are not shown.
UniProt Q16254: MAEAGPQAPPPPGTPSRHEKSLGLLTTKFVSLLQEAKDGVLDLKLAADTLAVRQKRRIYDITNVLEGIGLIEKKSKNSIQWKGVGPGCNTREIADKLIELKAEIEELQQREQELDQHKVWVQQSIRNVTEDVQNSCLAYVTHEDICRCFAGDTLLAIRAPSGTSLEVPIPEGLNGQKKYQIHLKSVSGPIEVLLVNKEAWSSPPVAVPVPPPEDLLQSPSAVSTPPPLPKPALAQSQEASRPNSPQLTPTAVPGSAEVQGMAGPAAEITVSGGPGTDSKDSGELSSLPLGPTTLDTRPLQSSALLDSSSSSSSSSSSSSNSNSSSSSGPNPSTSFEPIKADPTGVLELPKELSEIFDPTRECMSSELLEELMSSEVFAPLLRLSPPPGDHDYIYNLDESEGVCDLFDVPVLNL

Experiment [2] addresses T2, Flag-p107 SLiM MT (UniProt P28749).
T2 sequence: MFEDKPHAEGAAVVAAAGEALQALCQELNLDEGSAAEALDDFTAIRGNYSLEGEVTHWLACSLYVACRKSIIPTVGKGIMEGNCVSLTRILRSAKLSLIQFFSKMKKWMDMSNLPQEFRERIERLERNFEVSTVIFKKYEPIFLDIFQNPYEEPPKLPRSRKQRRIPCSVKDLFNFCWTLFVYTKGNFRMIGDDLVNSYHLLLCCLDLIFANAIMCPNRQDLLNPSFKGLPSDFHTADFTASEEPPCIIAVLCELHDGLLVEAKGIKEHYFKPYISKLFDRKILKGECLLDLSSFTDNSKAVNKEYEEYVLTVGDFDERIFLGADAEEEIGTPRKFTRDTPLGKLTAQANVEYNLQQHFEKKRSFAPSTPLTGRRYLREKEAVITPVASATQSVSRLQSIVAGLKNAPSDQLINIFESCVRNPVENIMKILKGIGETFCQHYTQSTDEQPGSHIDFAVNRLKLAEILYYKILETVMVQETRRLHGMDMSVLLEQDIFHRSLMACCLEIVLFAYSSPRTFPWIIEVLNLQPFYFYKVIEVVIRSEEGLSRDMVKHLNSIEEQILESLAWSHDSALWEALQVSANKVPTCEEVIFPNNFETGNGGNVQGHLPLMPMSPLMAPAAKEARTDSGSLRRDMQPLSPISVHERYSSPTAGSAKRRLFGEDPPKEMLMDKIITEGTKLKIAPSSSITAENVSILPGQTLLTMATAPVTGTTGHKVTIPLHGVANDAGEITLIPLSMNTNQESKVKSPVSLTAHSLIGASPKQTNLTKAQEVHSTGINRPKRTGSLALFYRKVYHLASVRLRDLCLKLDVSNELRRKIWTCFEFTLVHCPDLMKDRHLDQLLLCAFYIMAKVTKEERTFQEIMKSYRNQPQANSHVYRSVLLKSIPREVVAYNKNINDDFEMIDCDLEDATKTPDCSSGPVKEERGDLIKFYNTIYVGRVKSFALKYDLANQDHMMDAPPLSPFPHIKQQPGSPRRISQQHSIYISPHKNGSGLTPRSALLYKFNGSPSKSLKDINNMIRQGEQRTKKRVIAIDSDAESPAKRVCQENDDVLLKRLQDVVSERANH
Kind of experiment: co-IP; 293T cells co-transfected with WT or SLiM MT Flag-p107 and Myc-B55α wildtype or D197K; IP with anti-Flag agarose.

Among the data in article PMC8575462, “PP2A/B55α substrate recruitment as defined by the retinoblastoma-related protein p107” (eLife, 2021) are binding values, retold here.

No constants are given. Whether binding was seen depends on the method and setting. In cells and extracts the contact can be indirect. Some binding calls cover weakened binding; strength is not graded here. Sequences can lack the tags named with a protein.

In the case of HA-E2F4 (from UniProt Q16254 1-413), the binding result in experiment [1] is reported as “binds”.

B1: Myc-B55α D197K (protein, UniProt P63151 1-447)
chain: MAGAGGGNDIQWCFSQVKGAVDDDVAEADIISTVEFNHSGELLATGDKGGRVVIFQQEQENKIQSHSRGEYNVYSTFQSHEPEFDYLKSLEIEEKINKIRWLPQKNAAQFLLSTNDKTIKLWKISERDKRPEGYNLKEEDGRYRDPTTVTTLRVPVFRPMDLMVEASPRRIFANAHTYHINSISINSDYETYLSADKLRINLWHLEITDRSFNIVDIKPANMEELTEVITAAEFHPNSCNTFVYSSSKGTIRLCDMRASALCDRHSKLFEEPEDPSNRSFFSEIISSISDVKFSHSGRYMMTRDYLSVKIWDLNMENRPVETYQVHEYLRSKLCSLYENDCIFDKFECCWNGSDSVVMTGSYNNFFRMFDRNTKRDITLEASRENNKPRTVLKPRKVCASGKRKKDEISVDSLDFNKKILHTAWHPKENIIAVATTNNLYIFQDKVN
With B1, the binding entry in experiment [2] is listed as “no binding”.
